Laboratory results published in paper PMC10692324.
No constants are given. Whether binding was seen depends on the method and setting. Binding seen in cells or lysates may run through a third protein. Some binding calls cover weakened binding; strength is not graded here.

Amino acid sequences for entries named in this document (tags omitted).
UniProt P10275: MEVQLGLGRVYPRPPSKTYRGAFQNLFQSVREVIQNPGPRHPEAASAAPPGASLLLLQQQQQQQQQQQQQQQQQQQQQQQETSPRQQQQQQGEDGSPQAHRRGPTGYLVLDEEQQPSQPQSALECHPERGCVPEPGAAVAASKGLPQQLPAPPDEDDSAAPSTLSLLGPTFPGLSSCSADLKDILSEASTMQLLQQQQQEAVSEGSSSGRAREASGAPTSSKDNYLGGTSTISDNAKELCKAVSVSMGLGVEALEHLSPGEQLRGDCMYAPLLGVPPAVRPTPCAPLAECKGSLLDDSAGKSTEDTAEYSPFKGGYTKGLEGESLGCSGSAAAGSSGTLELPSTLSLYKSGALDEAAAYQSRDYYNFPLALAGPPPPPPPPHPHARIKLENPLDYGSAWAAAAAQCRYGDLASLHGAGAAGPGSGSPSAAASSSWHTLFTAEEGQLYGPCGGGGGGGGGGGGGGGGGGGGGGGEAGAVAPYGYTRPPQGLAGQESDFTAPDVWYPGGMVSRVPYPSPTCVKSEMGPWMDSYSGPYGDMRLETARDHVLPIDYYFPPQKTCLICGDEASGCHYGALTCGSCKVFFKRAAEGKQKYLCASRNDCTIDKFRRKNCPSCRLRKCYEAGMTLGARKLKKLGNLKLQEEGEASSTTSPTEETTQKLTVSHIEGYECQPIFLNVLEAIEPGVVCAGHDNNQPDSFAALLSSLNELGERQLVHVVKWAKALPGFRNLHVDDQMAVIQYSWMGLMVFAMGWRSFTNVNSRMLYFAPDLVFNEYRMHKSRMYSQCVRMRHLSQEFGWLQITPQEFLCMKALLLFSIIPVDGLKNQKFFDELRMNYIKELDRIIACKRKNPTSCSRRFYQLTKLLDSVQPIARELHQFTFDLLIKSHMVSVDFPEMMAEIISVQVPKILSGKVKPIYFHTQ
UniProt P21333: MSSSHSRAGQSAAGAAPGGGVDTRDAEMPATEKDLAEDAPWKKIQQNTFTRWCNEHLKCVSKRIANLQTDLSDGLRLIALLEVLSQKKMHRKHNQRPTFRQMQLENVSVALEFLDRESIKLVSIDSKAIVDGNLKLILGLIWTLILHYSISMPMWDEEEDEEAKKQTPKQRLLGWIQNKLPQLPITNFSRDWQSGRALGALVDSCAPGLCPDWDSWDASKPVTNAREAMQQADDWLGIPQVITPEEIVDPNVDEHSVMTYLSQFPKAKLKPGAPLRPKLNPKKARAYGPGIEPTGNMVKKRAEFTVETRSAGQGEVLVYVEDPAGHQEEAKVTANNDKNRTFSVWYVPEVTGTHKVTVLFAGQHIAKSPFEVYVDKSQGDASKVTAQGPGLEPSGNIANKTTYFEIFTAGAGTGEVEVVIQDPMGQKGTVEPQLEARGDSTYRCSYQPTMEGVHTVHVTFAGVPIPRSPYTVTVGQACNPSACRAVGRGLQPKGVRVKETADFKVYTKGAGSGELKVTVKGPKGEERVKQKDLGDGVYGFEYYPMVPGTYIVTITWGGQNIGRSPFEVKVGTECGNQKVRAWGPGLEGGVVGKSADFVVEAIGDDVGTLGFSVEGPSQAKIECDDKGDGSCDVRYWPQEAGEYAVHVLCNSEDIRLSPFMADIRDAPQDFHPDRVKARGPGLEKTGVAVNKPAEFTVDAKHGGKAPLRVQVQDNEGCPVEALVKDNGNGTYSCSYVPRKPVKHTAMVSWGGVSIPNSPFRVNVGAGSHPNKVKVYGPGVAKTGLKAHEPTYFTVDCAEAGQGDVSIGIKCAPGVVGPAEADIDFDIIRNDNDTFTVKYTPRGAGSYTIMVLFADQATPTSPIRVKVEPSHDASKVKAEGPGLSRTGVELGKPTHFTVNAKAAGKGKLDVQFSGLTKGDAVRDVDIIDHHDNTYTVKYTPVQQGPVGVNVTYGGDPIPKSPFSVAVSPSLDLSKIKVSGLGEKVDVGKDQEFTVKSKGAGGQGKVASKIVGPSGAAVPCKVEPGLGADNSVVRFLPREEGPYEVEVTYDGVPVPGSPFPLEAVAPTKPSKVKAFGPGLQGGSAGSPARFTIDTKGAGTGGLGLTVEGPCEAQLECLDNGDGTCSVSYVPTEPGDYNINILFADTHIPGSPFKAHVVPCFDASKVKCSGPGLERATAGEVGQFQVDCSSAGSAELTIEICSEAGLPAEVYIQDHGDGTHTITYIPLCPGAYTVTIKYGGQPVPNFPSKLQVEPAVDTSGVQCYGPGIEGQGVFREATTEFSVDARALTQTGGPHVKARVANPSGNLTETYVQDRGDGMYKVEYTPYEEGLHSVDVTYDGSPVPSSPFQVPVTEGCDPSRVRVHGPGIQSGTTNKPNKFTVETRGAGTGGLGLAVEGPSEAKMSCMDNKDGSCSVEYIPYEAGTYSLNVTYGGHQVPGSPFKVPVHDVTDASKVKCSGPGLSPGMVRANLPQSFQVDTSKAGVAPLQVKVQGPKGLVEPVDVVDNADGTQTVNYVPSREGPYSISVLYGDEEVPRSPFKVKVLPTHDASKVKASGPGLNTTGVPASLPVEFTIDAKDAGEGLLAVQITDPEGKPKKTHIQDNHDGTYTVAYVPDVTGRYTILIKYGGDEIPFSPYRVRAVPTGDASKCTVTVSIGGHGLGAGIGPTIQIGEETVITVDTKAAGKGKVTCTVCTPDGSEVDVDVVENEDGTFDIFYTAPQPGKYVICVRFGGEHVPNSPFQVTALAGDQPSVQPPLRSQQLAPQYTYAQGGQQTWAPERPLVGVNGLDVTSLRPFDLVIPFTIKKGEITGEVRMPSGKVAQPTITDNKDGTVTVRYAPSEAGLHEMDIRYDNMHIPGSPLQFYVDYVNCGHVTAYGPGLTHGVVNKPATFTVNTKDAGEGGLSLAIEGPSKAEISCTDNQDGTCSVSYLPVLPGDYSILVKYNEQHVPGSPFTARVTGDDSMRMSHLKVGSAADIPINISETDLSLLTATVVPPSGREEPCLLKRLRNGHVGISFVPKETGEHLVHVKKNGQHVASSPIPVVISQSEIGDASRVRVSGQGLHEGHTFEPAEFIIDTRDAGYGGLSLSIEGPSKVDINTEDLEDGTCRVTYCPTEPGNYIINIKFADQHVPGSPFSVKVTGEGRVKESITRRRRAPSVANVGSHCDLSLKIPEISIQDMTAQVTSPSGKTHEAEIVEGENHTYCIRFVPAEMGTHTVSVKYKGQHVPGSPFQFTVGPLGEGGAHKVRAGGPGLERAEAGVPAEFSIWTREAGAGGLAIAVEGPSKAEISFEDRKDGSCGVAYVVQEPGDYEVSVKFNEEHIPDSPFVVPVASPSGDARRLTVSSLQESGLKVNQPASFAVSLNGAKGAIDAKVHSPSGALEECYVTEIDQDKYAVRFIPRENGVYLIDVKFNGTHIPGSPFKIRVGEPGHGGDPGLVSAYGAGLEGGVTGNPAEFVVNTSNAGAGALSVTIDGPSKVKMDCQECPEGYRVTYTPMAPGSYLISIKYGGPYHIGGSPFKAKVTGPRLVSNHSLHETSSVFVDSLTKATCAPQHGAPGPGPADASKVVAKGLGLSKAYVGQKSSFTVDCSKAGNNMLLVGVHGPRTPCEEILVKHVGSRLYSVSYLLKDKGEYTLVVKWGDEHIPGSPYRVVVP

Target: androgen receptor (human (endogenous in skeletal muscle biopsies)) (UniProt P10275)
Test: co-IP; lysates of human skeletal muscle biopsies (RIPA buffer) from young (<58 years, 1 mg lysate protein) or old (>70 years, 3 mg) subjects, immune-precipitated with anti-AR antibody (E354N) or control IgG; FlnA detected by western blot

- binding: binds
Substance: filamin A (from UniProt P21333 1-2647)
